Laboratory results: publication PMC2391170
These are yes or no findings as the source states them, for the method shown. Some binding calls cover weakened binding; strength is not graded here.

Assays:
Assay in all cases: two-hybrid; AD (pGAD-C(1)) and BD (pGBD-C(1)) fusions in yeast PJ69-4; dual transformants tested on media lacking leucine, tryptophan and adenine; positive if all tested colonies (4 to 10) grew; both combinations of clones tested whenever possible
AtCPSF30 (Arabidopsis) = molecular target: T1, AtCPSF30 (Arabidopsis) (UniProt A9LNK9)
T1 sequence: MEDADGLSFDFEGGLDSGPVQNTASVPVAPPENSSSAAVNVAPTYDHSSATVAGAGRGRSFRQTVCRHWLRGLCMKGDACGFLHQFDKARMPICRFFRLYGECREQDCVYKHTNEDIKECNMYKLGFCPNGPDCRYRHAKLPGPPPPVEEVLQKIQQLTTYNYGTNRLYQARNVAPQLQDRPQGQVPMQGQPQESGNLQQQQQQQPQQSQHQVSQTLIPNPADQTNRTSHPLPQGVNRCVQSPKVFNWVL

AtCPSF73-I (Arabidopsis) = molecular target: T2, AtCPSF73-I (Arabidopsis) (UniProt Q9C952)
T2 sequence: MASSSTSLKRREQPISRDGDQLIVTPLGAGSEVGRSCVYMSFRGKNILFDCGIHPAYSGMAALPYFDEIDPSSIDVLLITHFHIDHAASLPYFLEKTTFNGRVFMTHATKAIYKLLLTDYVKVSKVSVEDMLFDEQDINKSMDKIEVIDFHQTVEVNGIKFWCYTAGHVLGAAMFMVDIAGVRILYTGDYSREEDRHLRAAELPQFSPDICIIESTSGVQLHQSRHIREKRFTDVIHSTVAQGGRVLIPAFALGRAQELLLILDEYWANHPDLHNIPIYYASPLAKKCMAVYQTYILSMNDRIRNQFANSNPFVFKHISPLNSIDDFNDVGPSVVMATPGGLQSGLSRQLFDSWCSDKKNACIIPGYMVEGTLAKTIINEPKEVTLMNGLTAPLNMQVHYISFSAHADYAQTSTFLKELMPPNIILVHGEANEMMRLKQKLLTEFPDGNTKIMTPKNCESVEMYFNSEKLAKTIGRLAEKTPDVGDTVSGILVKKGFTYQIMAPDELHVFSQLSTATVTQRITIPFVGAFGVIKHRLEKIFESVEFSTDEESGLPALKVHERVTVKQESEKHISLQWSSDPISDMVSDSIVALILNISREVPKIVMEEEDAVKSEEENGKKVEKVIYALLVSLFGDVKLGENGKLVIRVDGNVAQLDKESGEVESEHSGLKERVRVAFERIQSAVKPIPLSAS

[1] = molecular target: T3, AtCPSF73-II (Arabidopsis) (UniProt Q8GUU3)
T3 sequence: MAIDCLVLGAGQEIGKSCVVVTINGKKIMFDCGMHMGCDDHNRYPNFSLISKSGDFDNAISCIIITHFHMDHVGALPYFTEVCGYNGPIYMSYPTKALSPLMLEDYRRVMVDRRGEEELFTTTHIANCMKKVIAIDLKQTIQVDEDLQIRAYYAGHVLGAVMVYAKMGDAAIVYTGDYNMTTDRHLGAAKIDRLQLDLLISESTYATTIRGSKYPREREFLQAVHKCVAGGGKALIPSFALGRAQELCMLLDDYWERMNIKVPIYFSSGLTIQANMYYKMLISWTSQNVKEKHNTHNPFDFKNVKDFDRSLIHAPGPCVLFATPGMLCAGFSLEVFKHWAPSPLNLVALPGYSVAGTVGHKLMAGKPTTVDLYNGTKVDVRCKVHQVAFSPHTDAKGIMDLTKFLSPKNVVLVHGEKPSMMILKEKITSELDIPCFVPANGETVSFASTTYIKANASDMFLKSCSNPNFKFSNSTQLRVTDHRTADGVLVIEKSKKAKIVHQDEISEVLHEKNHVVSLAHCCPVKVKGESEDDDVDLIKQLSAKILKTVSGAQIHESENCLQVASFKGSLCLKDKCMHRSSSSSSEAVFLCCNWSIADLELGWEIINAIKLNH

FY (Arabidopsis) = molecular target: T4, FY (Arabidopsis) (UniProt Q6NLV4)
T4 sequence: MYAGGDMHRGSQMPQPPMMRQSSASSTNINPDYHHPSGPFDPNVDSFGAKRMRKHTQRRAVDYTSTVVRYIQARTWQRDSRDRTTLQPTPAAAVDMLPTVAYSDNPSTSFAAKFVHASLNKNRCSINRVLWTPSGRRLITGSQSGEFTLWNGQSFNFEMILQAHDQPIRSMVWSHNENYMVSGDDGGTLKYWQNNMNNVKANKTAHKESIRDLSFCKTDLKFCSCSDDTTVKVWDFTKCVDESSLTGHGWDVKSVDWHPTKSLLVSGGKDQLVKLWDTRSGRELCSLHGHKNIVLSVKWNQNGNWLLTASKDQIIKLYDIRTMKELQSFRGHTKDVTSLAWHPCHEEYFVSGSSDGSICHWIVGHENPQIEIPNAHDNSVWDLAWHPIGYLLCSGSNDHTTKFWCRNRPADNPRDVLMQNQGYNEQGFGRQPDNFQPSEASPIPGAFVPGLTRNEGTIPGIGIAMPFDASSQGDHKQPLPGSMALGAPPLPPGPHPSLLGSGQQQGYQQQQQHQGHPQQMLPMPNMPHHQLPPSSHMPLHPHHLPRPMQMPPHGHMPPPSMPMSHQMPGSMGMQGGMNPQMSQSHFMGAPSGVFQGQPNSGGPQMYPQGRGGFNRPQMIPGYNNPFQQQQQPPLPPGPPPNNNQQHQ

Measured: binding

B1: AtCPSF100 (protein, UniProt Q9LKF9 1-739)
chain: MGTSVQVTPLCGVYNENPLSYLVSIDGFNFLIDCGWNDLFDTSLLEPLSRVASTIDAVLLSHPDTLHIGALPYAMKQLGLSAPVYATEPVHRLGLLTMYDQFLSRKQVSDFDLFTLDDIDSAFQNVIRLTYSQNYHLSGKGEGIVIAPHVAGHMLGGSIWRITKDGEDVIYAVDYNHRKERHLNGTVLQSFVRPAVLITDAYHALYTNQTARQQRDKEFLDTISKHLEVGGNVLLPVDTAGRVLELLLILEQHWSQRGFSFPIYFLTYVSSSTIDYVKSFLEWMSDSISKSFETSRDNAFLLRHVTLLINKTDLDNAPPGPKVVLASMASLEAGFAREIFVEWANDPRNLVLFTETGQFGTLARMLQSAPPPKFVKVTMSKRVPLAGEELIAYEEEQNRLKREEALRASLVKEEETKASHGSDDNSSEPMIIDTKTTHDVIGSHGPAYKDILIDGFVPPSSSVAPMFPYYDNTSEWDDFGEIINPDDYVIKDEDMDRGAMHNGGDVDGRLDEATASLMLDTRPSKVMSNELIVTVSCSLVKMDYEGRSDGRSIKSMIAHVSPLKLVLVHAIAEATEHLKQHCLNNICPHVYAPQIEETVDVTSDLCAYKVQLSEKLMSNVIFKKLGDSEVAWVDSEVGKTERDMRSLLPMPGAASPHKPVLVGDLKIADFKQFLSSKGVQVEFAGGGALRCGEYVTLRKVGPTGQKGGASGPQQILIEGPLCEDYYKIRDYLYSQFYLL
binds: AtCPSF30 (Arabidopsis) | AtCPSF73-I (Arabidopsis) | [1] | FY (Arabidopsis)
